Assay results: US9694024B2 (priority 2010, dated 2017)
At least one structure is not confirmed: it was looked up by name or label, or the drawing left a doubt. Some compounds share one wording; it may come from a single statement.

Each compound was assayed on HIV-1IIIB (assay: Anti-HIV-1 cytoprotection assay (CEM-SS, XTT)). Conditions: up to a high test concentration of 10 μM.
`C[C@H](Cn1cnc2c(N)ncnc21)OCP(=O)(O)OCCCO` [CMX157-210] was tested, and the “antiviral activity in CEM-SS cells against HIV-1IIIB” value (shortened to “antiviral activity in CEM-SS cells”) was “did not demonstrate antiviral activity”. `C[C@H](Cn1cnc2c(N)ncnc21)OCP(=O)(O)OCCCOCC(=O)O` [CMX157-211] was tested, and the “antiviral activity in CEM-SS cells” value was “did not demonstrate antiviral activity”. `C[C@H](Cn1cnc2c(N)ncnc21)OCP(=O)(O)OCCCOCCCC(=O)O` [CMX157-220] was tested, and the “antiviral activity in CEM-SS cells” value was “did not demonstrate antiviral activity”.
